Experimental data: PubChem BioAssay (EPA / NIEHS)
Inconclusive results, whose numbers are uncertain, are shown with a selection of clear calls. For some assays here: Potencies of inconclusive entries are doubtful fits and often do not repeat. The source made the active and inactive calls. How the source made its calls: active means hit-call score of the fitted dose curve at least 0.9, where 1 is the maximum; inconclusive means response in the unintended direction; inactive means score below 0.9.

Protein sequences, listed by entry. Tags and fused reporters are not part of them. Lines headed by an entry give the natural chain unless they say otherwise; changes in a name come on top.
UniProt O15379: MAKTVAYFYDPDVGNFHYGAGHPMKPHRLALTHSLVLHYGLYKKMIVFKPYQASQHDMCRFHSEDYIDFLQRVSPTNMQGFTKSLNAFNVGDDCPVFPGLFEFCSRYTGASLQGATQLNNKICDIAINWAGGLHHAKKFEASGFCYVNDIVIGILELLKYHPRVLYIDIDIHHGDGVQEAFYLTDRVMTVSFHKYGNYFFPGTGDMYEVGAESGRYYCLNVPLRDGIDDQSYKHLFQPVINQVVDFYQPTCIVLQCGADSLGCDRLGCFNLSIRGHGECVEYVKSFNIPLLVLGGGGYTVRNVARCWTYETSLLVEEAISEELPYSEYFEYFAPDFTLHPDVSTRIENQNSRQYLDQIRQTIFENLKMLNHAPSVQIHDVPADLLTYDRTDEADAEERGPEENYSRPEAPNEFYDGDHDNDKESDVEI
UniProt P13945: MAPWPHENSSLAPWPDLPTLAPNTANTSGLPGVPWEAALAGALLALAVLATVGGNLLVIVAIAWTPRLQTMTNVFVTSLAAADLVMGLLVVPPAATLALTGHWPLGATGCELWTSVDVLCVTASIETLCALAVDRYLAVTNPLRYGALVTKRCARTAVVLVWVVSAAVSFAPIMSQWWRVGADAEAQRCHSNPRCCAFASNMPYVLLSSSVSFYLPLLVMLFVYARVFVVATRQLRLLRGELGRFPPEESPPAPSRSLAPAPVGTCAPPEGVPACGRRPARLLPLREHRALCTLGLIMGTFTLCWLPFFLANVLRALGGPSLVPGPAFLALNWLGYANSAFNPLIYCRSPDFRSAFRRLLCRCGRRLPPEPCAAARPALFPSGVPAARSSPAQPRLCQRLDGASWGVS
UniProt Q96RI1: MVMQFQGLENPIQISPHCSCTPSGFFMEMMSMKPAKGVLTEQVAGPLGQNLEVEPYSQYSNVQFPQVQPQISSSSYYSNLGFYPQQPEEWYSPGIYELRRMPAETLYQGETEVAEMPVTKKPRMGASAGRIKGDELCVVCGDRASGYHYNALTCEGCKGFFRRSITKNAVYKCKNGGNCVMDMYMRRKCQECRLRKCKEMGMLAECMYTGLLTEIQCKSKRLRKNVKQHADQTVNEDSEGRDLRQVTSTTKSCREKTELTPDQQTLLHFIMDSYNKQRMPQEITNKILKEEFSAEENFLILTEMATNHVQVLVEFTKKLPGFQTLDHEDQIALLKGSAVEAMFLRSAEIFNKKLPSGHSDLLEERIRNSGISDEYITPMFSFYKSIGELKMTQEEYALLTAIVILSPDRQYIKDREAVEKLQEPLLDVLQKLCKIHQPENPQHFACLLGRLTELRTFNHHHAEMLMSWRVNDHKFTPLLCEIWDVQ
UniProt P19328, whole entry, looked up: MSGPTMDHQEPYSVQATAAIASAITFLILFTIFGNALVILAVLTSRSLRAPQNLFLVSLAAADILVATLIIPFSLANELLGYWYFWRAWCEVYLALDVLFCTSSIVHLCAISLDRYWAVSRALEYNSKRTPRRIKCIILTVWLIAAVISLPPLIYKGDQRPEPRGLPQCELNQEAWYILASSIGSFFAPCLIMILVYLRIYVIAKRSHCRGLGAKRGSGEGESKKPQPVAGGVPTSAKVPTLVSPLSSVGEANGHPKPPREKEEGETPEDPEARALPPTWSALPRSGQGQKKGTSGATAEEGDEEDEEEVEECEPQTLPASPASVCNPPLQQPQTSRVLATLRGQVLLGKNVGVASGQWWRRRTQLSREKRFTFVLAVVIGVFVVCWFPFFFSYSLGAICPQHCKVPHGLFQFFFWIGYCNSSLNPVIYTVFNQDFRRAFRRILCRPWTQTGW
UniProt P33535, whole entry, looked up: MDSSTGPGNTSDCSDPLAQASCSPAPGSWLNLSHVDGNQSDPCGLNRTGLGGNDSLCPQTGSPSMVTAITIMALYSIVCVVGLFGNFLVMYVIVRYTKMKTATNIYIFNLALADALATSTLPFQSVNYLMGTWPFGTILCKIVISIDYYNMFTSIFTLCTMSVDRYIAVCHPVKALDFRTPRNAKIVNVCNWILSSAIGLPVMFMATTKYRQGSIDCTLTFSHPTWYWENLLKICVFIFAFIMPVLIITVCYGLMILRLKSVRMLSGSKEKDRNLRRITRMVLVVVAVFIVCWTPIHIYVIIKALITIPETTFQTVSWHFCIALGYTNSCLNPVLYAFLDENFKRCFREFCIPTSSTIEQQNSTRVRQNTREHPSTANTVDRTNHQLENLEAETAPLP
UniProt P57717: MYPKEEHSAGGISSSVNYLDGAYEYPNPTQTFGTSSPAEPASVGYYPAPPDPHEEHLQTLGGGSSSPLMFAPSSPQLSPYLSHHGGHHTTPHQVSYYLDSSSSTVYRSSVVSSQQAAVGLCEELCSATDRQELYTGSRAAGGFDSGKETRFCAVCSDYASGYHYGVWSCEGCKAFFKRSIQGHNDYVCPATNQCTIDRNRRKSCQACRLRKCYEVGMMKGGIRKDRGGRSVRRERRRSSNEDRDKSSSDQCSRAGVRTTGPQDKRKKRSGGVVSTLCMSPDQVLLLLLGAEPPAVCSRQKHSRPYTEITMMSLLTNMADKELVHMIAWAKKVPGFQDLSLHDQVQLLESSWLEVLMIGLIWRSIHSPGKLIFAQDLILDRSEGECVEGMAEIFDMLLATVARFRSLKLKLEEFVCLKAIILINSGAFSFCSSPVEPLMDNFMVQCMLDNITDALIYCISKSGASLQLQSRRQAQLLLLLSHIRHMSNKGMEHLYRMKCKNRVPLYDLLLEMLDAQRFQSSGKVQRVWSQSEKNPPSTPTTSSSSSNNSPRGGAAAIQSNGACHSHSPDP
UniProt P37231: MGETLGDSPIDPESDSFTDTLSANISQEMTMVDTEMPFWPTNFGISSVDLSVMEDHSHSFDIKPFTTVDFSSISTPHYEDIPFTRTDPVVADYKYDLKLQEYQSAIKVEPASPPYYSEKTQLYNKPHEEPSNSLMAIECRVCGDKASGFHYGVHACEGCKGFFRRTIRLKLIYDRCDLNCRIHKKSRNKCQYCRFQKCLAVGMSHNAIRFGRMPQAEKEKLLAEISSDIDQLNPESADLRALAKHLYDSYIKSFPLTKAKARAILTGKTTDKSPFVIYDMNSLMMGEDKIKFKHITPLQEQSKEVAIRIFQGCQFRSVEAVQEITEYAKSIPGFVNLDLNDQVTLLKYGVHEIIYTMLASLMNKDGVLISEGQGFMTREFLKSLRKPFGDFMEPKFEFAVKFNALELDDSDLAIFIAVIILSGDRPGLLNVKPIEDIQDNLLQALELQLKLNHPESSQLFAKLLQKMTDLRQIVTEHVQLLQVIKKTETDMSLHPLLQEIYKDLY
UniProt P15204: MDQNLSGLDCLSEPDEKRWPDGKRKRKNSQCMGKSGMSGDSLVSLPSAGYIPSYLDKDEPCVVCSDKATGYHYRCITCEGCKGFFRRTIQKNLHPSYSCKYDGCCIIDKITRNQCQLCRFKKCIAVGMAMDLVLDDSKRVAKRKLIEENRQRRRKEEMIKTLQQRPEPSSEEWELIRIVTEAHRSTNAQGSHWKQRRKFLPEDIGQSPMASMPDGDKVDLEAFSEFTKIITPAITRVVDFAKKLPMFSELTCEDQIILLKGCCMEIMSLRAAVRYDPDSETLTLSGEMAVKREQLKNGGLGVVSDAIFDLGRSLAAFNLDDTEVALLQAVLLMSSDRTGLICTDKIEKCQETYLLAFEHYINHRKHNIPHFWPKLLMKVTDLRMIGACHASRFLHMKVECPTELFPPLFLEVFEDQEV
UniProt Q9PVE4: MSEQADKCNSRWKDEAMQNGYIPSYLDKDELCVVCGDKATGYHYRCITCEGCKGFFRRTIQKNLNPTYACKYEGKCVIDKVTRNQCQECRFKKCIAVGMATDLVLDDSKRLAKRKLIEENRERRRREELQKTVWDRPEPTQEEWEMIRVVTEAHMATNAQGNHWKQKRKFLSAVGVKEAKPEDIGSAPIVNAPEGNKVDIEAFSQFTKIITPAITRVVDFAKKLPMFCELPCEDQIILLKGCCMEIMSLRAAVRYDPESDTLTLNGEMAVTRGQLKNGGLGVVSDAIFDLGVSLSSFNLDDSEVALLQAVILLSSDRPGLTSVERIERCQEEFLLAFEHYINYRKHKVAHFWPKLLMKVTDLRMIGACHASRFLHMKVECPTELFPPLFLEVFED
UniProt P10275: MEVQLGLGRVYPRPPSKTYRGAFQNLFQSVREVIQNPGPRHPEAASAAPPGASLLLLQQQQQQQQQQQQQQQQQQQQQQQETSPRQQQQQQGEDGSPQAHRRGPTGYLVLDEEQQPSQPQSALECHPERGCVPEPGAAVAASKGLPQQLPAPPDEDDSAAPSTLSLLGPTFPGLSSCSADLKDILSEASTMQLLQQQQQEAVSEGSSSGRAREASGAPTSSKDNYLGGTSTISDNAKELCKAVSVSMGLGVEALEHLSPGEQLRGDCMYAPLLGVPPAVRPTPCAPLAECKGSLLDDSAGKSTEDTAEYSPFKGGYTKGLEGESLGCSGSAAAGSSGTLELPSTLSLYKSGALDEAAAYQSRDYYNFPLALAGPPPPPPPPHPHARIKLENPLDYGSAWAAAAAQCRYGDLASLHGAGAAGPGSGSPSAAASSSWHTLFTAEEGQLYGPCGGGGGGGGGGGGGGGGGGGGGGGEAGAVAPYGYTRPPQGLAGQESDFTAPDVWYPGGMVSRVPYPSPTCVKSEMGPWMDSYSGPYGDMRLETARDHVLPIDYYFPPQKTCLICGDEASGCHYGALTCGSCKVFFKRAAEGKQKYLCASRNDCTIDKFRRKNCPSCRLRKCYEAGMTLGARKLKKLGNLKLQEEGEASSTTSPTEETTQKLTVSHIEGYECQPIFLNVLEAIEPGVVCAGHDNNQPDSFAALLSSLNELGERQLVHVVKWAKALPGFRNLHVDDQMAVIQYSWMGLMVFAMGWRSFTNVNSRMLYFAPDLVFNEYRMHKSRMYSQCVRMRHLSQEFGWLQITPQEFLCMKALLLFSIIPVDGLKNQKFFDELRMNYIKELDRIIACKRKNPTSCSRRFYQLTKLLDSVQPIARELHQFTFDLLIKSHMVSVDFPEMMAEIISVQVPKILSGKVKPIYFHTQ
UniProt Q12809: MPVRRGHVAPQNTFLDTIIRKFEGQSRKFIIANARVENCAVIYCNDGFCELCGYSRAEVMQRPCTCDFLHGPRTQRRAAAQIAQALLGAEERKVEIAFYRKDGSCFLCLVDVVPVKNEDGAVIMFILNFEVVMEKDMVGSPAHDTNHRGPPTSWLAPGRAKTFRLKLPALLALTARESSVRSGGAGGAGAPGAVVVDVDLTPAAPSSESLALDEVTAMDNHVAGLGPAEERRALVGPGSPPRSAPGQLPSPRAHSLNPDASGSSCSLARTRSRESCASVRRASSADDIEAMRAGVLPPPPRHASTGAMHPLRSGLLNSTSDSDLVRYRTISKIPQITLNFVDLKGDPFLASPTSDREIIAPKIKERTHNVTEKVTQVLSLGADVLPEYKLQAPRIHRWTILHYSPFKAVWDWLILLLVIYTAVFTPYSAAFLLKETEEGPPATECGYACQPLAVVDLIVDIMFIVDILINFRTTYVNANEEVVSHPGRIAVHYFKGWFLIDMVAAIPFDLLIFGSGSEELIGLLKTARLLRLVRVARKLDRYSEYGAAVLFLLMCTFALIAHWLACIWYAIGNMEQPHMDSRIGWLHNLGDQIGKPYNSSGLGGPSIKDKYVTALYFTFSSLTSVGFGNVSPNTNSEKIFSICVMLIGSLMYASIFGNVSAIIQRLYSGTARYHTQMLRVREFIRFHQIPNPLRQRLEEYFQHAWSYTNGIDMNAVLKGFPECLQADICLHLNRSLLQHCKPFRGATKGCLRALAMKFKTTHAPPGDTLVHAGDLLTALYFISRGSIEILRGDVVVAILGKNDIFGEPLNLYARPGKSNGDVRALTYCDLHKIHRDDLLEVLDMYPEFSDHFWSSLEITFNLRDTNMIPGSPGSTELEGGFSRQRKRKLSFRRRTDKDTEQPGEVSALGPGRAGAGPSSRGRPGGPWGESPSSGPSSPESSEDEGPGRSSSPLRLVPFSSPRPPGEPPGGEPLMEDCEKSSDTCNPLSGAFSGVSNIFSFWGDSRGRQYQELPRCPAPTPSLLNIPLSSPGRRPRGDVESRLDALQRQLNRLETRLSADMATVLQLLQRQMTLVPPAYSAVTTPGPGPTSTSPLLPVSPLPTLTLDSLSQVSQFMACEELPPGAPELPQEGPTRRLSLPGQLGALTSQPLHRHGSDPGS

How the values were obtained:
[1] = CCTE_Deisenroth_AIME_96WELL_CTox_Inactive: Cytotoxicity Assessment (CTOX) in CCTE's 96-well Estrogen Receptor Transactivation Assay without AIME metabolic competence (metabolism negative), Deisenroth Lab (AID 2284029)
How it was run: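 Chemicals (0.002 - 200 uM, 10 points) incubated 2 h with alginate-water microspheres (no S9), then medium moved onto VM7Luc4E2 cells for 24 h. Viability by protease-substrate cleavage to fluorescent probe; bidirectional fitting.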

[2] = molecular target: human CYP2B6, CYP2B6 (gene 1555) (UniProt P20813); assay: NVS_ADME_hCYP2B6: NovaScreen (NVS) CYP450-related Enzyme Activity (ADME) Assay for human CYP2B6 (AID 2283101)
How it was run: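 Recombinant protein, specific fluorescent substrate, read at 1 h post-dosing. Primary: single 10 uM, duplicate; follow-up: concentration series. Activity = signal loss vs acetonitrile baseline, with positive and negative controls on every plate.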

[3] = molecular target: Histone deacetylase 3 (Homo sapiens) (UniProt O15379); assay: NVS_ENZ_hHDAC3: NovaScreen (NVS) Enzymatic Assay for human Histone Deacetylase 3 (HDAC3) (AID 2283163)
How it was run: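 Recombinant human HDAC3 with fluorescent substrate, 1 h after dosing; product separated from substrate by electrophoretic mobility shift and read by fluorescence. Primary screen at 25 uM in duplicate; actives (e.g. ≥30% inhibition) retested in concentration-response up to 50 uM.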

[4] = molecular target: rat CYP2A2, Cyp2a2 (gene 24895) (UniProt P15149); assay: NVS_ADME_rCYP2A2: NovaScreen (NVS) CYP450-related Enzyme Activity (ADME) Assay for rat CYP2A2 (AID 2283116)
How it was run: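 Cell-free recombinant rat CYP2A2 activity with fluorogenic substrate, fluorescence read 0.2 h after dosing. Chemicals screened at 10 uM in duplicate, hits then run in concentration-response up to 20 uM; signal loss versus acetonitrile baseline.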

[5] = molecular target: human Adrenergic, Beta 3 Receptor (Adrb3), ADRB3 (gene 155) (UniProt P13945); assay: NVS_GPCR_hAdrb3: NovaScreen (NVS) G Protein-Coupled Receptor Assay for human Adrenergic, Beta 3 Receptor (Adrb3) (AID 2283262)
How it was run: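 Membranes from SK-N-MC cells pretreated with isoproterenol and 8-bromo-cAMP were used in a radioligand competitive displacement binding assay. Binding was read by filter-based scintillation counting 1 hour after dosing. Primary screening was in duplicate at 25 uM, with concentration series in follow-up.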

[6] = molecular target: human Janus Kinase 2 (Jak2), JAK2 (gene 3717) (UniProt O60674); assay: NVS_ENZ_hJak2: NovaScreen (NVS) Enzymatic Assay for human Janus Kinase 2 (Jak2) (AID 2283169)
How it was run: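 Cell-free recombinant human JAK2 enzyme activity assay, fluorescence/electrophoretic mobility shift read 1 h after dosing. Screened in duplicate at 25 uM, then concentration-response up to 50 uM; activity as signal loss relative to DMSO.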

[7] = Tanguay_ZF_120hpf_OTIC_legacy: (Legacy) Oregon State University Tanguay Lab 120 Hour Post-fertilization zebrafish Assay for Otic Vesicle Malformation (AID 2283639)
How it was run: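 Tropical 5D wild-type zebrafish embryos statically exposed in 0.64% DMSO at 28C until 120 hpf; 5uM trimethyltin chloride as positive control. Otic vesicle malformation scored present/absent by brightfield; dead embryos not scored; gain fitted versus DMSO.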

[8] = molecular target: Bile acid receptor (Homo sapiens) (UniProt Q96RI1); assay: NVS_NR_hFXR_Agonist: NovaScreen (NVS) Nuclear Receptor Binding Assay for human Farnesoid X Receptor Agonism (FXR) (AID 2283347)
How it was run: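 Cell-free TR-FRET binding assay with extracted human FXR protein, agonist format, read 1 h after dosing. Primary screen at 25 uM single concentration in duplicate, actives retested in concentration series; gain of signal versus DMSO.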

[9] = IUF_NPC1_cytotoxicity_72hr: Cytotoxicity Assessment at 72 hours in the Leibniz Research Institute for Environmental Medicine (IUF) Neural Progenitor Cell Proliferation Assay (NPC1) (AID 2284332);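 further: rising LDH signal means more cytotoxicity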
How it was run: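 Human fetal neural progenitor spheres (0.3 mm) in EGF/FGF proliferation medium, 37C, exposed 72 h without renewal. LDH release in supernatant read by resorufin fluorescence; gain of signal scored relative to dynamic range.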

[10] = molecular target: Adra2b (gene 24174) (UniProt P19328); assay: NVS_GPCR_rmAdra2B: NovaScreen (NVS) G Protein-Coupled Receptor Assay for hybird cells Adrenergic, Alpha 2B Receptor (Adra2B) (AID 2283306)
How it was run: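 Radioligand filter-binding assay on membrane proteins from neuroglioma/blastoma hybrid cells (rodent), 1 h after dosing; scintillation counting, loss of signal vs DMSO. Primary screen in duplicate at 25 uM, actives then run in concentration series.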

[11] = molecular target: rat Opioid Receptor, Non-selective Sodium (Na+) Binding, Oprm1 (gene 25601) (UniProt P33535); assay: NVS_GPCR_rOpiate_NonSelectiveNa: NovaScreen (NVS) G Protein-Coupled Receptor Assay for rat Opioid Receptor, Non-selective Sodium (Na+) Binding (AID 2283311)
How it was run: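 Rat forebrain membranes, radioligand displacement with filter scintillation counting, 1.5 h incubation. Screened in duplicate at 25 µM; hits then run in concentration-response up to 50 µM; loss of binding fitted versus DMSO.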

[12] = molecular target: zebrafish Estrogen Receptor (ESR1), esr1 (gene 259252) (UniProt P57717); assay: ATG_zfER1_XSP1: Attagene TRANS-FACTORIAL Multi-Species (XSP1) HepG2 Assay for zebrafish Estrogen Receptor (ESR1) (AID 2283772)
How it was run: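 HepG2 cells were transiently transfected with multiplexed GAL4-UAS reporter units driven by chimeric NR-GAL4 proteins, dosed for 24 h with 3 nM 6-alpha-fluorotestosterone present, and reporter mRNA quantified by RT-PCR and capillary electrophoresis versus DMSO.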

[13] = molecular target: Peroxisome proliferator-activated receptor gamma (Homo sapiens) (UniProt P37231); assay: ATG_hPPARg_XSP1: Attagene TRANS-FACTORIAL Multi-Species (XSP1) HepG2 Assay for human Peroxisome Proliferator-activated Receptor gamma (PPARg) (AID 2283800)
How it was run: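 HepG2 cells transiently transfected with GAL4-UAS reporter units carrying chimeric NR-Gal4 proteins; 3 nM 6-alpha-fluorotestosterone present. After 24 h dosing, reporter mRNA quantified by RT-PCR and capillary electrophoresis; gain of signal relative to DMSO.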

[14] = molecular target: Nuclear receptor subfamily 1 group I member 2 (Mus musculus) (UniProt O54915); assay: ATG_mPXR_XSP1: Attagene TRANS-FACTORIAL Multi-Species (XSP1) HepG2 Assay for mouse Pregnane X Receptor (PXR) (AID 2283803)
How it was run: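 Transiently transfected HepG2 cells expressing a receptor-Gal4 chimera drive a GAL4-UAS reporter; 3 nM 6-alpha-fluorotestosterone included. Reporter mRNA read 24 h post-dose by RT-PCR and capillary electrophoresis; gain of signal relative to DMSO.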

[15] = molecular target: frog Thyroid hormone Receptor alpha (TRa), thra-a (gene 397942) (UniProt P15204); assay: ATG_frTRa_XSP1: Attagene TRANS-FACTORIAL Multi-Species (XSP1) HepG2 Assay for frog Thyroid hormone Receptor alpha (TRa) (AID 2283804)
How it was run: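 HepG2 cells transiently transfected with frog TRa-GAL4 chimeric reporter units, dosed 24 hr with 3 nM 6-alpha-fluorotestosterone present; reporter mRNA quantified by RT-PCR, fluorescent labelling and capillary electrophoresis, gain of signal versus DMSO.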

[16] = molecular target: zebrafish Thyroid Hormone Receptor beta (TRb), thrb (gene 30607) (UniProt Q9PVE4); assay: ATG_zfTRb_XSP1: Attagene TRANS-FACTORIAL Multi-Species (XSP1) HepG2 Assay for zebrafish Thyroid Hormone Receptor beta (TRb) (AID 2283809)
How it was run: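 HepG2 cells transiently transfected with multiplexed GAL4-UAS reporter units expressing chimeric zebrafish TRb–Gal4. Dosed 24 h with 3 nM 6-alpha-fluorotestosterone present; reporter mRNA measured by RT-PCR, HpaI digestion and capillary electrophoresis; gain of signal versus DMSO.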

[17] = molecular target: Nucleoli Translocation, AR (gene 367) (UniProt P10275); assay: UPITT_HCI_U2OS_AR_TIF2_Nucleoli_Agonist: University of Pittsburgh U2OS Androgen Receptor-Transcriptional Intermediary Factor 2 (AR-TIF2) Agonism High Content Imaging Assay for Nucleoli Translocation (AID 2283998)
How it was run: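 Cells express human AR fused to red fluorescent protein and TIF2 fused to GFP. Red fluorescence in the nucleolar region was quantified by high-content imaging and fitted as gain-of-signal against a DMSO baseline. Compounds were tested at 0.195 to 50 uM final (0.5% DMSO).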

[18] = molecular target: human Serotonin, 5-Hydroxytryptamine Receptor 2A (5HT2A), HTR2A (gene 3356) (UniProt P28223); assay: NVS_GPCR_h5HT2A: NovaScreen (NVS) G Protein-Coupled Receptor Assay for human Serotonin, 5-Hydroxytryptamine Receptor 2A (5HT2A) (AID 2283249)
How it was run: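 Human cortex membranes, cell-free radioligand binding; filter-based scintillation read 1.5 h after dosing. Duplicate screen at 25 uM first; displacement of specific binding (loss of signal) versus DMSO.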

[19] = molecular target: rat Opioid Receptor, Non-selective Binding, Oprm1 (gene 25601) (UniProt P33535); assay: NVS_GPCR_rOpiate_NonSelective: NovaScreen (NVS) G Protein-Coupled Receptor Assay for rat Opioid Receptor, Non-selective Binding (AID 2283318)
How it was run: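 Rat forebrain membranes, cell-free radioligand binding with filter-based scintillation counting, read 1.5 h after dosing. Primary screen in duplicate at 25 uM; actives retested in concentration series. Loss of signal versus DMSO baseline scored.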

[20] = molecular target: Voltage-gated inwardly rectifying potassium channel KCNH2 (Homo sapiens) (UniProt Q12809); assay: NVS_IC_hKhERGCh: NovaScreen (NVS) Ion Channel Assay for human Potassium Channel ERG (KhERGCh) (AID 2283333)
How it was run: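 Cell-free radioligand competition binding on hERG protein extracted from CHO cells, read by filter-based scintillation counting 0.75 h after dosing. Primary screen at 25 uM in duplicate, actives followed in concentration series. Signal loss fitted versus DMSO.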

Structure (SMILES): c1ccc(-c2ccccc2)cc1
- AC50 [1]: inconclusive: 19.8 µM

Structure (SMILES): Oc1cc(Cl)c(Cl)cc1Cl
- AC50 [2]: inconclusive: 18.8 µM
- outcome [3]: inactive

Structure (SMILES): CCNC(=O)NC(=O)C(C#N)=NOC
- AC50 [4]: inconclusive: 10 µM
- AC50 [5]: inconclusive: 4.04 µM

Structure (SMILES): CNC(=O)CSP(=S)(OC)OC
- AC50 [6]: inconclusive: 25 µM

Structure (SMILES): CNc1cnn(-c2cccc(C(F)(F)F)c2)c(=O)c1Cl
- AC50 [7]: inconclusive: 201 µM

Structure (SMILES): CC(C)N(C(=O)SCC(Cl)=C(Cl)Cl)C(C)C
- AC50 [8]: inconclusive: 0.0373 µM
- AC50 [9]: inconclusive: 10 µM

Structure (SMILES): CC1(C)CON(Cc2ccccc2Cl)C1=O
- AC50 [10]: inconclusive: 25 µM

Structure (SMILES): CCOP(=S)(OCC)Oc1ccc([N+](=O)[O-])cc1
- outcome [11]: inactive

Structure (SMILES): CCOP(=S)(OCC)Oc1ccc2c(C)c(Cl)c(=O)oc2c1
- AC50 [12]: inconclusive: 100 µM
- AC50 [13]: active: 11.4 µM
- AC50 [14]: active: 0.214 µM
- AC50 [15]: inconclusive: 100 µM
- outcome [16]: inactive

Structure (SMILES): COc1cc(OC)nc(Oc2cccc(Oc3nc(OC)cc(OC)n3)c2C(=O)O)n1
- AC50 [17]: inconclusive: 0.0104 µM

Structure (SMILES): CCOC(=O)[C@]1(c2ccccc2)Oc2ccccc2[C@@H]1N
- AC50 [18]: active: 3.91 µM
- AC50 [19]: active: 7.52 µM
- AC50 [20]: active: 1.44 µM
